Measured values from article doi:10.1101/2023.04.21.537819, “DNA damage-induced interaction between a lineage addiction oncogenic transcription factor and the MRN complex shapes a tissue-specific DNA Damage Response and cancer predisposition” (bioRxiv, 2023).

Chains of the proteins cited; added tags and fusions are not shown. Lines headed by an entry give the natural chain unless they say otherwise; changes in a name come on top. A line that says so, or that is headed by a name, gives the form on record, which may keep a tag or linker.
BirA*-FLAG-MITF (O75030, form named): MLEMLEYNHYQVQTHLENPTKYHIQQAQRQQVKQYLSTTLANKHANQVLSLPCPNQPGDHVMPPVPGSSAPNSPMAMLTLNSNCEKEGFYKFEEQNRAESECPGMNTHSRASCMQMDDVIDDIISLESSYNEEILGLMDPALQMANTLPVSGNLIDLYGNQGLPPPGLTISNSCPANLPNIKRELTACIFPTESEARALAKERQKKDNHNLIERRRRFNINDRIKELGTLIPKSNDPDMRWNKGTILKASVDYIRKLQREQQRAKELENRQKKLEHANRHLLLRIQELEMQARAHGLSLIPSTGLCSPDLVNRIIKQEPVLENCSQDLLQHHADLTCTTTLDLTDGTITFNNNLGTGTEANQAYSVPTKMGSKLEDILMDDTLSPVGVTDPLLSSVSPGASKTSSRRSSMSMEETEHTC
UniProt O60934: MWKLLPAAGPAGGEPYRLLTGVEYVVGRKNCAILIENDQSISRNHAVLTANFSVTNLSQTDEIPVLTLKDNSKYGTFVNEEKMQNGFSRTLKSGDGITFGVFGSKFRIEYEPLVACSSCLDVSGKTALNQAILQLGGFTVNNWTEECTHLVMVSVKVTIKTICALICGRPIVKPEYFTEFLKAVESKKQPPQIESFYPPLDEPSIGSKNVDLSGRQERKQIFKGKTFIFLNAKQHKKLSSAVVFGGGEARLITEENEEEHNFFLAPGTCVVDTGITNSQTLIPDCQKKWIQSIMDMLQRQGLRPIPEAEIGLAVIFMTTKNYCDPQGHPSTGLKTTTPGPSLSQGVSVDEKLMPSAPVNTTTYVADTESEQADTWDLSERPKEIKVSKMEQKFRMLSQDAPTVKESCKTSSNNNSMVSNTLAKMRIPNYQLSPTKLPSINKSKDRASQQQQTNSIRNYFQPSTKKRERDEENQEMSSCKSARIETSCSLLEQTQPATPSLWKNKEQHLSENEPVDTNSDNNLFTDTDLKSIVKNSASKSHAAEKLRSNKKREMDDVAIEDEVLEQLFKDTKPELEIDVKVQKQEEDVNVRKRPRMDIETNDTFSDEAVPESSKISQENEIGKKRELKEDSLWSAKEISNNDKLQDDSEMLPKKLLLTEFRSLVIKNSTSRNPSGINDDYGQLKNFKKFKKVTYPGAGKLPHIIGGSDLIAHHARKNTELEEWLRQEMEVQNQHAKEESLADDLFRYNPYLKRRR
UniProt P19532: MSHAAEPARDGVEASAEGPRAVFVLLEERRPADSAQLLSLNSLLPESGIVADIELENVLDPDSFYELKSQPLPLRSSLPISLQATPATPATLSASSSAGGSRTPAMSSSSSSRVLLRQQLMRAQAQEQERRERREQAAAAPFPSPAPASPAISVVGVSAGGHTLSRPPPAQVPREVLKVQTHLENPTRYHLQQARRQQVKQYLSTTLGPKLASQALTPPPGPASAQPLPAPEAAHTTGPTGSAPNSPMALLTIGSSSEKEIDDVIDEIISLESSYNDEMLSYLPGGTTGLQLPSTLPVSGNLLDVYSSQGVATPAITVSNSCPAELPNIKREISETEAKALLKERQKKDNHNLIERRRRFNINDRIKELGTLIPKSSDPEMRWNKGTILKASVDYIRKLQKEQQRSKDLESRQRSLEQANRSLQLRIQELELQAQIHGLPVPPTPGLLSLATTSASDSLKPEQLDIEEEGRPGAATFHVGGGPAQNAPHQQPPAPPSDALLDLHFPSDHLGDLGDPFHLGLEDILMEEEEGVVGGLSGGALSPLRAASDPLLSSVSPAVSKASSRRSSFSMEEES
UniProt P51531: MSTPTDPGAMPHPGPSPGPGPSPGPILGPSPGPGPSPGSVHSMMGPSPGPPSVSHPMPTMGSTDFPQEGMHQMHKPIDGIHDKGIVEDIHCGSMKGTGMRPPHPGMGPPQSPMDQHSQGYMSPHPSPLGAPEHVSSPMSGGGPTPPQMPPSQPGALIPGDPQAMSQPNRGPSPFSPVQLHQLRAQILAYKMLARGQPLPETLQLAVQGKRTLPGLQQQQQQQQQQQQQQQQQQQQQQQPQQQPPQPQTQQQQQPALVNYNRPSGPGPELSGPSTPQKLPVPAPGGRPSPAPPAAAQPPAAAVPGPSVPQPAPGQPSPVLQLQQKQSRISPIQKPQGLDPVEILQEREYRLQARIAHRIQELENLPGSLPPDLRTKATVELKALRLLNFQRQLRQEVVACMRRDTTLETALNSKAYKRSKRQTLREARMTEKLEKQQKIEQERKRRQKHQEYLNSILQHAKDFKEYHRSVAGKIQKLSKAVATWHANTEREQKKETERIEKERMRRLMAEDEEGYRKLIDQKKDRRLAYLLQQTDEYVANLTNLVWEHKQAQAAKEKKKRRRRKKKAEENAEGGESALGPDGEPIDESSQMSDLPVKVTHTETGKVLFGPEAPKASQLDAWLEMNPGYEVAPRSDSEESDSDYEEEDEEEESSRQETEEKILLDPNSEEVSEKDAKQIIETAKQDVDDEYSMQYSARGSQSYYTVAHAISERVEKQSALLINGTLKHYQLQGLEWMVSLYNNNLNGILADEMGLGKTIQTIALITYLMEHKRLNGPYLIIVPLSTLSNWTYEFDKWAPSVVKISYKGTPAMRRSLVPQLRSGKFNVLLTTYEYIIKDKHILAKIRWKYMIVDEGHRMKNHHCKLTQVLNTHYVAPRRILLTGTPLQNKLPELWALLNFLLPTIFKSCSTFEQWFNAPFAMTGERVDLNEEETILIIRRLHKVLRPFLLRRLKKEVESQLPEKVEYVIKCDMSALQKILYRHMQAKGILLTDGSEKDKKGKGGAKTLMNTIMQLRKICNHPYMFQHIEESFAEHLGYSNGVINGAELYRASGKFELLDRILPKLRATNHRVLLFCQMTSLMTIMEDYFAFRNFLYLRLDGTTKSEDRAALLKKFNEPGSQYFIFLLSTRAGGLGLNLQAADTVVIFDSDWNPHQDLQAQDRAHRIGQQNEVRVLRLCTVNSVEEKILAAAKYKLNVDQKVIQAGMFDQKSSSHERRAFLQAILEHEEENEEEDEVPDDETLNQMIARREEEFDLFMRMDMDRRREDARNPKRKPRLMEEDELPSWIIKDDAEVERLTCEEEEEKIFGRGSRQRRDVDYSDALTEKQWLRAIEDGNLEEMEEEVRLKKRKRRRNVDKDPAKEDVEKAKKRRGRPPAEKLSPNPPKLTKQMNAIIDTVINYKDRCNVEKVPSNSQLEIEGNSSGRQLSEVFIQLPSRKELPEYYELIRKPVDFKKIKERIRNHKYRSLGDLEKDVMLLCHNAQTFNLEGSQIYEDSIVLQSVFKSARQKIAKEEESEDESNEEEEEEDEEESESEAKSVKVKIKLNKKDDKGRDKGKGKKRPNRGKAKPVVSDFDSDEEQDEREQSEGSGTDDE
UniProt P62330: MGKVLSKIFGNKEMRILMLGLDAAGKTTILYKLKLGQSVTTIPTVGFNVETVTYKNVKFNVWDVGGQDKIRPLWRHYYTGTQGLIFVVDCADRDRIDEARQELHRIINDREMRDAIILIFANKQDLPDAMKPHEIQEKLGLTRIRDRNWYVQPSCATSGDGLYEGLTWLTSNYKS
UniProt P51784: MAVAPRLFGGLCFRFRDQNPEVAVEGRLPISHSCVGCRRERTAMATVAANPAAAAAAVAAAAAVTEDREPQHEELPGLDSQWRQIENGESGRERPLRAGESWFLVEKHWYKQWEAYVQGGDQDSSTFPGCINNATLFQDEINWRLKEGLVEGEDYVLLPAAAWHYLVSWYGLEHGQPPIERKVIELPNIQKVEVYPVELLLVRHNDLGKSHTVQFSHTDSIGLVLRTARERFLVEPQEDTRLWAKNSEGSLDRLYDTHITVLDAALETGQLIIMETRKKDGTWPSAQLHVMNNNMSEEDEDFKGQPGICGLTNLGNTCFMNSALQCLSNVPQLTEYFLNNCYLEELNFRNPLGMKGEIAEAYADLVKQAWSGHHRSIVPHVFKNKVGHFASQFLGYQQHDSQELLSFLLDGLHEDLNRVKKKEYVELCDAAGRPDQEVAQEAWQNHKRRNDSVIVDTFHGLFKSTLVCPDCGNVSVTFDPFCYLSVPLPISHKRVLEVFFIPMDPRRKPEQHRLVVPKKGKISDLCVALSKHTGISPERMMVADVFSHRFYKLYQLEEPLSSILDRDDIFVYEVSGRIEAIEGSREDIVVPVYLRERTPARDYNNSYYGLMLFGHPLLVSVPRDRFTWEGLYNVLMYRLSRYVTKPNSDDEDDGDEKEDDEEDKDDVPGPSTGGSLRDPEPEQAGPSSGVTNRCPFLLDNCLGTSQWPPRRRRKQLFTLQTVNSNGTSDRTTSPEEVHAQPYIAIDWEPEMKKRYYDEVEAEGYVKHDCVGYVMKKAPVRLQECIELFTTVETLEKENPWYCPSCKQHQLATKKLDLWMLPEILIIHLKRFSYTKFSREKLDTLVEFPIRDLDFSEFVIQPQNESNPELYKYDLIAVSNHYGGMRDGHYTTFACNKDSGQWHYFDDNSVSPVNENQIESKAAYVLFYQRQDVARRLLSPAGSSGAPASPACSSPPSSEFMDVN
UniProt Q92878: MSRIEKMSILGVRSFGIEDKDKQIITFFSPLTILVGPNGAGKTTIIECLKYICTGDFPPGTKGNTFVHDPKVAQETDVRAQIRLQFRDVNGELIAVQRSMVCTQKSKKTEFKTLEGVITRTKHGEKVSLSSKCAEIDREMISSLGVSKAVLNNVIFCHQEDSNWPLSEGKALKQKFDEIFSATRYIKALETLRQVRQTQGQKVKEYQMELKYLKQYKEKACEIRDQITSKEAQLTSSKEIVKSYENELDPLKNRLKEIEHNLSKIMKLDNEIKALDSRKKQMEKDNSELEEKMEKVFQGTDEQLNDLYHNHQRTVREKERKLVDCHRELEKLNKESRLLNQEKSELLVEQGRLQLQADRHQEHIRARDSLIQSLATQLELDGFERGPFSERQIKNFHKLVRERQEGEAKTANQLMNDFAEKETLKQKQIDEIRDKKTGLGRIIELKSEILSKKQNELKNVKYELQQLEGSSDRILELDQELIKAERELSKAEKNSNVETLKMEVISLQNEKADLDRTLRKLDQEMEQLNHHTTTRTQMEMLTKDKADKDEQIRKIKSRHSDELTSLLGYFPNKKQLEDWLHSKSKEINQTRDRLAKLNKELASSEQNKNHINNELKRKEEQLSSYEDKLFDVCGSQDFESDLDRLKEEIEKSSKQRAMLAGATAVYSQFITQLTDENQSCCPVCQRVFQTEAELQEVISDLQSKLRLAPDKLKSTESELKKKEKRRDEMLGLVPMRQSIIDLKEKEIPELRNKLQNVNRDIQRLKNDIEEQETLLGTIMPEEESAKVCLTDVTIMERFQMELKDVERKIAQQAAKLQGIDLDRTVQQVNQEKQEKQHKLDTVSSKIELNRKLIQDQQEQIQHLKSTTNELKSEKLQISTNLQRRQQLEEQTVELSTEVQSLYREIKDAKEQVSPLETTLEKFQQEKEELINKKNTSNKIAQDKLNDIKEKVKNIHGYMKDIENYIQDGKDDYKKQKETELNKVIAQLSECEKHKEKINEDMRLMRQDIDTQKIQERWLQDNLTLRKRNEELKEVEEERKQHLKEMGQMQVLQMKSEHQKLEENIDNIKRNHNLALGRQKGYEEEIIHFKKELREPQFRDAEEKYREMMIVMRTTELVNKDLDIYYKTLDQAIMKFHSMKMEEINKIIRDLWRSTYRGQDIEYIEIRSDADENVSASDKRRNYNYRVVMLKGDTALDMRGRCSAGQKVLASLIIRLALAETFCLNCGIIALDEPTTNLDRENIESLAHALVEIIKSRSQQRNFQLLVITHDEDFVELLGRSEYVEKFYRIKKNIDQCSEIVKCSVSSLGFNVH
UniProt P05549: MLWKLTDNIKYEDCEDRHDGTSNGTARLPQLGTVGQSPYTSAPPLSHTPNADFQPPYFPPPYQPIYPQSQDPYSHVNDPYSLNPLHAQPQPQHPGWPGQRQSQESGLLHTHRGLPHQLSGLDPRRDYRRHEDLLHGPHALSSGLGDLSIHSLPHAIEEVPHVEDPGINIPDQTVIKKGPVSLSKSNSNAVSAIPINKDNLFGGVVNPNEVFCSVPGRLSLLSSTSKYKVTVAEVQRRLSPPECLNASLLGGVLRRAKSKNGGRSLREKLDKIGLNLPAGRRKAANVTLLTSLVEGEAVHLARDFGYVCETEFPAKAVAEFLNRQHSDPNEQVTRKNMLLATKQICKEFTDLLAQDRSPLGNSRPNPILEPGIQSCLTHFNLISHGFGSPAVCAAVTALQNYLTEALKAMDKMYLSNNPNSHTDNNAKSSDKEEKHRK

B1: VPS33B (protein, UniProt Q9H267 1-617)
chain: MAFPHRPDAPELPDFSMLKRLARDQLIYLLEQLPGKKDLFIEADLMSPLDRIANVSILKQHEVDKLYKVENKPALSSNEQLCFLVRPRIKNMRYIASLVNADKLAGRTRKYKVIFSPQKFYACEMVLEEEGIYGDVSCDEWAFSLLPLDVDLLSMELPEFFRDYFLEGDQRWINTVAQALHLLSTLYGPFPNCYGIGRCAKMAYELWRNLEEEEDGETKGRRPEIGHIFLLDRDVDFVTALCSQVVYEGLVDDTFRIKCGSVDFGPEVTSSDKSLKVLLNAEDKVFNEIRNEHFSNVFGFLSQKARNLQAQYDRRRGMDIKQMKNFVSQELKGLKQEHRLLSLHIGACESIMKKKTKQDFQELIKTEHALLEGFNIRESTSYIEEHIDRQVSPIESLRLMCLLSITENGLIPKDYRSLKTQYLQSYGPEHLLTFSNLRRAGLLTEQAPGDTLTAVESKVSKLVTDKAAGKITDAFSSLAKRSNFRAISKKLNLIPRVDGEYDLKVPRDMAYVFGGAYVPLSCRIIEQVLERRSWQGLDEVVRLLNCSDFAFTDMTKEDKASSESLRLILVVFLGGCTFSEISALRFLGREKGYRFIFLTTAVTNSARLMEAMSEVKA
B2: TRIM24 (protein, UniProt O15164 1-1050)
chain: MEVAVEKAVAAAAAASAAASGGPSAAPSGENEAESRQGPDSERGGEAARLNLLDTCAVCHQNIQSRAPKLLPCLHSFCQRCLPAPQRYLMLPAPMLGSAETPPPVPAPGSPVSGSSPFATQVGVIRCPVCSQECAERHIIDNFFVKDTTEVPSSTVEKSNQVCTSCEDNAEANGFCVECVEWLCKTCIRAHQRVKFTKDHTVRQKEEVSPEAVGVTSQRPVFCPFHKKEQLKLYCETCDKLTCRDCQLLEHKEHRYQFIEEAFQNQKVIIDTLITKLMEKTKYIKFTGNQIQNRIIEVNQNQKQVEQDIKVAIFTLMVEINKKGKALLHQLESLAKDHRMKLMQQQQEVAGLSKQLEHVMHFSKWAVSSGSSTALLYSKRLITYRLRHLLRARCDASPVTNNTIQFHCDPSFWAQNIINLGSLVIEDKESQPQMPKQNPVVEQNSQPPSGLSSNQLSKFPTQISLAQLRLQHMQQQVMAQRQQVQRRPAPVGLPNPRMQGPIQQPSISHQQPPPRLINFQNHSPKPNGPVLPPHPQQLRYPPNQNIPRQAIKPNPLQMAFLAQQAIKQWQISSGQGTPSTTNSTSSTPSSPTITSAAGYDGKAFGSPMIDLSSPVGGSYNLPSLPDIDCSSTIMLDNIVRKDTNIDHGQPRPPSNRTVQSPNSSVPSPGLAGPVTMTSVHPPIRSPSASSVGSRGSSGSSSKPAGADSTHKVPVVMLEPIRIKQENSGPPENYDFPVVIVKQESDEESRPQNANYPRSILTSLLLNSSQSSTSEETVLRSDAPDSTGDQPGLHQDNSSNGKSEWLDPSQKSPLHVGETRKEDDPNEDWCAVCQNGGELLCCEKCPKVFHLSCHVPTLTNFPSGEWICTFCRDLSKPEVEYDCDAPSHNSEKKKTEGLVKLTPIDKRKCERLLLFLYCHEMSLAFQDPVPLTVPDYYKIIKNPMDLSTIKKRLQEDYSMYSKPEDFVADFRLIFQNCAEFNEPDSEVANAGIKLENYFEELLKNLYPEKRFPKPEFRNESEDNKFSDDSDDDFVQPRKKRLKSIEERQLLK
B3: C14orf133 (protein, UniProt Q9H9C1 1-493)
chain: MNRTKGDEEEYWNSSKFKAFTFDDEDDELSQLKESKRAVNSLRDFVDDDDDDDLERVSWSGEPVGSISWSIRETAGNSGSTHEGREQLKSRNSFSSYAQLPKPTSTYSLSSFFRGRTRPGSFQSLSDALSDTPAKSYAPELGRPKGEYRDYSNDWSPSDTVRRLRKGKVCSLERFRSLQDKLQLLEEAVSMHDGNVITAVLIFLKRTLSKEILFRELEVRQVALRHLIHFLKEIGDQKLLLDLFRFLDRTEELALSHYREHLNIQDPDKRKEFLKTCVGLPFSAEDSAHIQDHYTLLERQIIIEANDRHLESAGQTEIFRKHPRKASILNMPLVTTLFYSCFYHYTEAEGTFSSPVNLKKTFKIPDKQYVLTALAARAKLRAWNDVDALFTTKNWLGYTKKRAPIGFHRVVEILHKNNAPVQILQEYVNLVEDVDTKLNLATKFKCHDVVIDTYRDLKDRQQLLAYRSKVDKGSAEEEKIDALLSSSQIRWKN
B4: RAE1 (protein, UniProt P78406 1-368)
chain: MSLFGTTSGFGTSGTSMFGSATTDNHNPMKDIEVTSSPDDSIGCLSFSPPTLPGNFLIAGSWANDVRCWEVQDSGQTIPKAQQMHTGPVLDVCWSDDGSKVFTASCDKTAKMWDLSSNQAIQIAQHDAPVKTIHWIKAPNYSCVMTGSWDKTLKFWDTRSSNPMMVLQLPERCYCADVIYPMAVVATAERGLIVYQLENQPSEFRRIESPLKHQHRCVAIFKDKQNKPTGFALGSIEGRVAIHYINPPNPAKDNFTFKCHRSNGTNTSAPQDIYAVNGIAFHPVHGTLATVGSDGRFSFWDKDARTKLKTSEQLDQPISACCFNHNGNIFAYASSYDWSKGHEFYNPQKKNYIFLRNAAEELKPRNKK
B5: LZTS2 (protein, UniProt Q9BRK4 1-669)
chain: MAIVQTLPVPLEPAPEAATAPQAPVMGSVSSLISGRPCPGGPAPPRHHGPPGPTFFRQQDGLLRGGYEAQEPLCPAVPPRKAVPVTSFTYINEDFRTESPPSPSSDVEDAREQRAHNAHLRGPPPKLIPVSGKLEKNMEKILIRPTAFKPVLPKPRGAPSLPSFMGPRATGLSGSQGSLTQLFGGPASSSSSSSSSSAADKPLAFSGWASGCPSGTLSDSGRNSLSSLPTYSTGGAEPTTSSPGGHLPSHGSGRGALPGPARGVPTGPSHSDSGRSSSSKSTGSLGGRVAGGLLGSGTRASPDSSSCGERSPPPPPPPPSDEALLHCVLEGKLRDREAELQQLRDSLDENEATMCQAYEERQRHWQREREALREDCAAQAQRAQRAQQLLQLQVFQLQQEKRQLQDDFAQLLQEREQLERRCATLEREQRELGPRLEETKWEVCQKSGEISLLKQQLKESQAELVQKGSELVALRVALREARATLRVSEGRARGLQEAARARELELEACSQELQRHRQEAEQLREKAGQLDAEAAGLREPPVPPATADPFLLAESDEAKVQRAAAGVGGSLRAQVERLRVELQRERRRGEEQRDSFEGERLAWQAEKEQVIRYQKQLQHNYIQMYRRNRQLEQELQQLSLELEARELADLGLAEQAPCICLEEITATEI

target: BirA*-FLAG-MITF (human) (UniProt O75030); experiment: proximity labelling; BioID in HEK293 cells stably expressing doxycycline-inducible BirA*-FLAG-MITF (control BirA*-FLAG-NLS), untreated or treated with CPT (20 nM, 4 h); biotinylated proteins captured on streptavidin-Sepharose beads 3 h at 4°C, mass spectrometry; SAINTexpress, 1% false discovery …

binding, binds:
NBS1 (endogenous) (from UniProt O60934 1-754)
TFE3 (from UniProt P19532 1-575)
NCOA2 (from UniProt Q15596 1-1464)
SMARCA2 (from UniProt P51531 1-1590)
NCOA6 (from UniProt Q14686 1-2063)
ARF6 (from UniProt P62330 1-175)
KRI1 (from UniProt Q8N9T8 1-703)
USP11 (from UniProt P51784 1-963)
PAXIP1 (from UniProt Q6ZW49 1-1069)
PIAS1 (from UniProt O75925 1-651)
RAD50 (endogenous) (from UniProt Q92878 1-1312)
BRPF1 (from UniProt P55201 1-1214)
TFAP2A (from UniProt P05549 1-437)
B1
B2
B3
B4
B5

These are yes or no findings as the source states them, for the method shown. Binding seen in cells or lysates may run through a third protein. Here binding means that the protein was enriched with, or labelled near, the bait; the list need not be complete.
